# Values of other authors in US8026281B2, “Treating metabolic syndrome with fenofibrate” (Lupin Atlantis Holdings, S.A., priority 2004, dated 2011).
# For at least one compound, name, drawing or mass did not settle the structure.
# Tested on: patients with coronary heart disease
# Settings: patients with triglyceride levels greater than or equal to 200 mg/dl; cited from earlier work
compound,measurement,value
CC(C)(Oc1ccc(CCNC(=O)c2ccc(Cl)cc2)cc1)C(=O)O [bezafibrate],all-cause and cardiac mortality,significantly lower all-cause and cardiac mortality
